The target of this assay is T1, Mrp5 (protein of the small subunit of the mitoribosome, mtSSU) (S. pombe (endogenous in S. pombe cells)) (UniProt Q10234).
T1 sequence: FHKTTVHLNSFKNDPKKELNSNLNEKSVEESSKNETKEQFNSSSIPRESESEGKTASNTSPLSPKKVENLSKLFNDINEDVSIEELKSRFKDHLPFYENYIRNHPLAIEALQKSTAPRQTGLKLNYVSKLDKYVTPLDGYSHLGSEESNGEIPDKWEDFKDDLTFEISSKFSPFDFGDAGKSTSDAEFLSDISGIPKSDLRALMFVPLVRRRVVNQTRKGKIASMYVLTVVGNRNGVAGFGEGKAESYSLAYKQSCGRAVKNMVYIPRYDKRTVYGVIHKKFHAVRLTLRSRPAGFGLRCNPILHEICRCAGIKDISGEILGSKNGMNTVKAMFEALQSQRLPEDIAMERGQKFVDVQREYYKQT
As to the kind of experiment: co-sedimentation; 10-34% sucrose gradient of digitonin lysates of crude mitochondria (20 mM HEPES pH 7.5, 100 mM KCl, 10 mM MgCl2); wild-type, mti2Δinsertion and Δmti2 strains; 12 fractions, Western blot. (A western blot detects proteins with antibodies after separation by electrophoresis.)

Results are given in words; binding and its absence hold for the method and conditions named. Binding seen in cells or lysates may run through a third protein. Some entries that bind do so weakly or less than the wild type.

B1: Mti3 (S. pombe mitochondrial translation initiation factor 3) (protein, UniProt Q76PC7 40-233)
chain: AKLSNSIKKYFDGRIDESIKYQEIFIRGLENKGKLSKTSLVEALARVRAKPETVLYKVADPNENNKYPICSIISYTELSKLRENQSSRLREAEKSKHKNKTRTRYVLFSWRTDVNDIERKLKSVKDFLQDGNIVEIHVQNKKRSQPVSQEVRDSILSKIQLEIEGLGKDMKPPIVNSHSATFLLQPLVSKSSEL
Take B1: the binding entry is on record as “binds”.

Source of the values: article PMC12109253.
